# Measured values reported in the supplement of paper PMC6411743.
# Sequences of proteins named here, by UniProt entry; tags and fusion partners are left off. A change or cut given only in a name is not applied to a line headed by its entry.
# UniProt Q15643: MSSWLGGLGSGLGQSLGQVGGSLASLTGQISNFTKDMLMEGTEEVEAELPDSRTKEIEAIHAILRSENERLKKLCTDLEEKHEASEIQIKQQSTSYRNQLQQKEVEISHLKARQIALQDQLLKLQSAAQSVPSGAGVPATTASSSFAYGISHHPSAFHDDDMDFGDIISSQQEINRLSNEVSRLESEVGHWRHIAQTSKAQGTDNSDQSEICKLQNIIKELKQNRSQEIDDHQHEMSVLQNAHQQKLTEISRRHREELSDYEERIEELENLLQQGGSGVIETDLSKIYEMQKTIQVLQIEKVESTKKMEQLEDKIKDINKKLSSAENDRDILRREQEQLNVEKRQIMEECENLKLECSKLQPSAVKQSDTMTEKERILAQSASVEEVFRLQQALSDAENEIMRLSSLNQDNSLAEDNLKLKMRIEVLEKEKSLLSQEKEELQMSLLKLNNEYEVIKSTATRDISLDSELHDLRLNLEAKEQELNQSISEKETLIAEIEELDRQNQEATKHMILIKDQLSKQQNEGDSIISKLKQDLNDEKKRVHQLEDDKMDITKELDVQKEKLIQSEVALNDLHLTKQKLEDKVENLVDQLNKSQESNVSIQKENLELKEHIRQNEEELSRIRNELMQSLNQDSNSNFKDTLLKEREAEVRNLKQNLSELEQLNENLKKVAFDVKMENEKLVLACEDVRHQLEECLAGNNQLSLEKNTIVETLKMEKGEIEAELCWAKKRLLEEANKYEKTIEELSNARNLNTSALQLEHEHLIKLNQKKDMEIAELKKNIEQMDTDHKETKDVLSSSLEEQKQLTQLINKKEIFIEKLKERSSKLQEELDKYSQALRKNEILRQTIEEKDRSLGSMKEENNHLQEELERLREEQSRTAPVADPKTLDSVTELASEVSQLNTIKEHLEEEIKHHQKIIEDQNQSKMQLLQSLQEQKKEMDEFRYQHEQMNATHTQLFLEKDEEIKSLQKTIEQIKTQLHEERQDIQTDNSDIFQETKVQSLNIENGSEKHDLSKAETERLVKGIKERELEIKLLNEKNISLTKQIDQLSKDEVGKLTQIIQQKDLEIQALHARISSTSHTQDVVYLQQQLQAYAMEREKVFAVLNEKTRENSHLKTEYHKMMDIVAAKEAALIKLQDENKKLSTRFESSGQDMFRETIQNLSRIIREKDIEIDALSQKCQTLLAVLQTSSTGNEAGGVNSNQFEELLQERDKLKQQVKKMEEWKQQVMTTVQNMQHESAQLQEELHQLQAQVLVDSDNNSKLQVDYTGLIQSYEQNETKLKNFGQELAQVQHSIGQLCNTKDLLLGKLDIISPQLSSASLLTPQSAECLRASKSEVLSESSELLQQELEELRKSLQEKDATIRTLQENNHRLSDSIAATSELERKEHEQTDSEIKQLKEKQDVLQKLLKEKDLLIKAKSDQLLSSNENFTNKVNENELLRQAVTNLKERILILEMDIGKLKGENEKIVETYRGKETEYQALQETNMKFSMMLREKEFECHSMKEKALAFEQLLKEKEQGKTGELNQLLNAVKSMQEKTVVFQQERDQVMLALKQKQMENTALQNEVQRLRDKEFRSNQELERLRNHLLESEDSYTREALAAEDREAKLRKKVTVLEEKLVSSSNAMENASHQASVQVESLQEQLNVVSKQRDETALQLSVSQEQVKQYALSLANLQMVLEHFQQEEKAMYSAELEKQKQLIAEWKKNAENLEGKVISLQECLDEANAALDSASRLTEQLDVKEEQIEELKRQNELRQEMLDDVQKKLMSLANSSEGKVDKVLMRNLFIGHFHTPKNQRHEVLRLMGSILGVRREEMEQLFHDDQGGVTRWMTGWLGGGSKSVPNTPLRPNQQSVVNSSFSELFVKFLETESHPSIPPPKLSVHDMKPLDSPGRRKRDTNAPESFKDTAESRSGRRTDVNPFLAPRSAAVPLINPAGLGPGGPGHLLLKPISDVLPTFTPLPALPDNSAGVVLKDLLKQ
# UniProt O75427: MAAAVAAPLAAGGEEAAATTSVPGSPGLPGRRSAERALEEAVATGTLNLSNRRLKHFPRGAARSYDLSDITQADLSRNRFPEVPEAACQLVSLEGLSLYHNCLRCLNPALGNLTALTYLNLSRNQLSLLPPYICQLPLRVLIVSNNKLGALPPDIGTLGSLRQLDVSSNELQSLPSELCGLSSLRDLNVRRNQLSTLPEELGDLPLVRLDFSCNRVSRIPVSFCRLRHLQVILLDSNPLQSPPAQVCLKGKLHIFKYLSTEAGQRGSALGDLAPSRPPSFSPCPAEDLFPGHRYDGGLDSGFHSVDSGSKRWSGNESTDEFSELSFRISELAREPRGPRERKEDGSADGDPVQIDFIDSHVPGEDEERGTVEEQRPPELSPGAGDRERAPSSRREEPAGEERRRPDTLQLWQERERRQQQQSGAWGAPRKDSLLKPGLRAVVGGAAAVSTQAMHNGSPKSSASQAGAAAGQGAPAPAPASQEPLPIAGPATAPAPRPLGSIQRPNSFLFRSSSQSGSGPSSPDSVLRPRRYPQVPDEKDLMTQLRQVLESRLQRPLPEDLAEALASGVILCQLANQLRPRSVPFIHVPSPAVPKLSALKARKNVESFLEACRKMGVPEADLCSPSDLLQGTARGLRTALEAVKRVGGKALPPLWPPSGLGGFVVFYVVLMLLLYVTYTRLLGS
# UniProt H0UI80: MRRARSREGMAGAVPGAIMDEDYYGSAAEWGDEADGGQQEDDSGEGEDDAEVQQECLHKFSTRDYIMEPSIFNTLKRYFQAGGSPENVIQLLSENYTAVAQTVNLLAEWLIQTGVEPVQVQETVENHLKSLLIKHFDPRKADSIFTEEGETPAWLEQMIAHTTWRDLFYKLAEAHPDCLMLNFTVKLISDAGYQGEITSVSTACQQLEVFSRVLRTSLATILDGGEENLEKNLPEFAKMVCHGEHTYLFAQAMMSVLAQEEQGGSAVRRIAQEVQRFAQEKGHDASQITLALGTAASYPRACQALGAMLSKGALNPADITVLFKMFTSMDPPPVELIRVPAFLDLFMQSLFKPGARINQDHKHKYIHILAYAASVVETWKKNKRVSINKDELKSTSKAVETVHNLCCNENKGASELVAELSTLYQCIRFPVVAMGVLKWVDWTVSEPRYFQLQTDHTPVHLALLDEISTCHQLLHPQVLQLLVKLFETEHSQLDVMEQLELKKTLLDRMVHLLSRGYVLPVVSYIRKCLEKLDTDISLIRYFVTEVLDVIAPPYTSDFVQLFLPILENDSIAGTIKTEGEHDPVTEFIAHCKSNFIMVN
# UniProt Q92879: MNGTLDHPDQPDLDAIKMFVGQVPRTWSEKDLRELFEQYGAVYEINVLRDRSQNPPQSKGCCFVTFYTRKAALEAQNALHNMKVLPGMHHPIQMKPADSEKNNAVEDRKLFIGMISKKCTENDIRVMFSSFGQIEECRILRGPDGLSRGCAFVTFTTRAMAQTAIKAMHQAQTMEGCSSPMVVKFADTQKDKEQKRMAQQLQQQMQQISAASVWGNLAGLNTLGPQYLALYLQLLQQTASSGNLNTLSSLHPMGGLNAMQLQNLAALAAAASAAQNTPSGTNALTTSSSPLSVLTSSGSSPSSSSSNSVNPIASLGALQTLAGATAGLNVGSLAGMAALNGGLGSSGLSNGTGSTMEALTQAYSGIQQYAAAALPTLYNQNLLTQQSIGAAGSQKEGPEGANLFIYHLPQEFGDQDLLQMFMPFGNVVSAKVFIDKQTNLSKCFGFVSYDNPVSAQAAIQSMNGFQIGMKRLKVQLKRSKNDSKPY
# UniProt P42356, whole entry, looked up: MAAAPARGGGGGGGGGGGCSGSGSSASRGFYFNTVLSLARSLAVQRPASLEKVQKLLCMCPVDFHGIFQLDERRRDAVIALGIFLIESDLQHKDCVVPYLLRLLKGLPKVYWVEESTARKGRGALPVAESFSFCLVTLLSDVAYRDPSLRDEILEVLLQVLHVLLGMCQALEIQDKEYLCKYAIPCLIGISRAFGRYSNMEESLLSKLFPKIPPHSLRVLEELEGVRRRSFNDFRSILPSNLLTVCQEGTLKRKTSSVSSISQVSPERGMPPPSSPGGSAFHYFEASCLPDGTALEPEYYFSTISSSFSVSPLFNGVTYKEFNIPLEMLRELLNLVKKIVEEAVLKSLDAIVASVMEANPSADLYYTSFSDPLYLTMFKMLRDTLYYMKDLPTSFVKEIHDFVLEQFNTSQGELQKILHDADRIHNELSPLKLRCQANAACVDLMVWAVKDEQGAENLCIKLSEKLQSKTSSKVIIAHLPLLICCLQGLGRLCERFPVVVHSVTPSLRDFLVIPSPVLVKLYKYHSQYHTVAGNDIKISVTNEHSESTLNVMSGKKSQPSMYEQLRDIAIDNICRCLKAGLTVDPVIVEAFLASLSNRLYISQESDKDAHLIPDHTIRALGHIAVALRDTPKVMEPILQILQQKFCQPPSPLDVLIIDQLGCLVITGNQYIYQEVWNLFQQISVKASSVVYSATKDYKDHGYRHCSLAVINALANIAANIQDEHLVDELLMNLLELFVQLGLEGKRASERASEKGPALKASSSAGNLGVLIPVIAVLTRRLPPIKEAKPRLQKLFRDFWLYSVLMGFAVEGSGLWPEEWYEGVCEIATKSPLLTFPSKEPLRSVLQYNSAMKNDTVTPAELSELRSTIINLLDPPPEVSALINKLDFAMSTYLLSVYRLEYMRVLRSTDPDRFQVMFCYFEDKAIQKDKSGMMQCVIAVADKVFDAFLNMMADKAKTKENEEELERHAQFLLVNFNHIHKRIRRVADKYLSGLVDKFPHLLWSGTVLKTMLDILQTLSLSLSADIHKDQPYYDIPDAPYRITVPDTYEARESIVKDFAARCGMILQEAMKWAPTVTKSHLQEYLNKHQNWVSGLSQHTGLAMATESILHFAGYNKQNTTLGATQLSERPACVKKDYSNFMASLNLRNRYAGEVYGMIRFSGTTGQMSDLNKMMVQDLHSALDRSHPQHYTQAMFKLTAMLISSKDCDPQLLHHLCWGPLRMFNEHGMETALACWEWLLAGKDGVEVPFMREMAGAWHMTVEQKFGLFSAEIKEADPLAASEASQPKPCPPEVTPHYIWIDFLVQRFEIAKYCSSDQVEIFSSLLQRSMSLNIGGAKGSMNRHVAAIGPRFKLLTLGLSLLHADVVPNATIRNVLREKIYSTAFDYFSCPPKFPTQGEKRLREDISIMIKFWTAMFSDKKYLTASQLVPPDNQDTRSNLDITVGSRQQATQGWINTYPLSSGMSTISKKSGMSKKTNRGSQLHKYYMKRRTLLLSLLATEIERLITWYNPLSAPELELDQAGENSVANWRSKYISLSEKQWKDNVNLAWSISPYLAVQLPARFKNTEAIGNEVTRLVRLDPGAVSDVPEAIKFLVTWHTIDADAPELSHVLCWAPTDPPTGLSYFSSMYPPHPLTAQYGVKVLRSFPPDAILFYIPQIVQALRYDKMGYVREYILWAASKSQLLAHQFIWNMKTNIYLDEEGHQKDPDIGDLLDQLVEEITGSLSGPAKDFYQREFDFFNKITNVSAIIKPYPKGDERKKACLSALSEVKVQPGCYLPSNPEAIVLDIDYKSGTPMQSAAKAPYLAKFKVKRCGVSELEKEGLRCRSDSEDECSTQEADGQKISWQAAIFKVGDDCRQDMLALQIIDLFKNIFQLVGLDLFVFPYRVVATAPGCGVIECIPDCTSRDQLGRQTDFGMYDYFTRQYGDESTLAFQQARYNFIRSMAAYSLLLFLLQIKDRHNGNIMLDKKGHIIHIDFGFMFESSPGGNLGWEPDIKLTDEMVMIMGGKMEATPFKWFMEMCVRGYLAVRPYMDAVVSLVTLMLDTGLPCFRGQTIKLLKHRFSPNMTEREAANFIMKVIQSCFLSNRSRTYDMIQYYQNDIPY
# UniProt Q15637: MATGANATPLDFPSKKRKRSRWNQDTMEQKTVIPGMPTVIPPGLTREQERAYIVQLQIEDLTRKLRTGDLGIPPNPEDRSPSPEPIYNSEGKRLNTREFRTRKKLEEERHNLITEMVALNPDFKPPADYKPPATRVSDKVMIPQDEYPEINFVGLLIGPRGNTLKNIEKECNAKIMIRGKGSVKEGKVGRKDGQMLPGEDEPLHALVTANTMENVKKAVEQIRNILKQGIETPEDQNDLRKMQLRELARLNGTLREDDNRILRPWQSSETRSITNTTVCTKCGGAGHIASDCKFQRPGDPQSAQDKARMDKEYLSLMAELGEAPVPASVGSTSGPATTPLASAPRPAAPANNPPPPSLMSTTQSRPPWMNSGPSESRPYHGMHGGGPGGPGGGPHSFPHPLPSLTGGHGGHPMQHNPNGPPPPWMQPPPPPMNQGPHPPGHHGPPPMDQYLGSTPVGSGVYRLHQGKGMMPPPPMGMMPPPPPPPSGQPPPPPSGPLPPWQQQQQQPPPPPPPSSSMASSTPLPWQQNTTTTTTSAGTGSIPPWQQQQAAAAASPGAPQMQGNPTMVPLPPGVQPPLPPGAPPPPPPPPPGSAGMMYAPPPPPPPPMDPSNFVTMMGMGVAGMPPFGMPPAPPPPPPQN
# ± gives the standard deviation of the averaged measurements. The entries are a selection whose mix differs from that of the whole data set. Small differences around the control level are noise.
# Compound: Nc1ncnc2c1ncn2[C@@H]1O[C@H](COP(=O)(O)OP(=O)(O)OP(=O)(O)O)[C@@H](O)[C@H]1O [adenosine triphosphate]
# Test: NP40-soluble protein abundance relative to vehicle (solubility fold change) (ratio); higher = more soluble protein in presence of ATP
# Method in brief: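 Eight concentrations, 0.1 to 10 mM, were tested on Jurkat crude lysate for 10 min at room temperature and then 3 min at 37 °C, in three independent experiments. The lysate was solubilised with 0.8% NP40 and benzonase, ultracentrifuged, and the supernatant TMT-labelled for LC-MS/MS. Each value is the fold change against the detergent-processed vehicle in its own replicate, from vsn-normalised intensities.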
Target,NP40-soluble protein abundance (concentration: 0.1mM),NP40-soluble protein abundance (concentration: 0.5mM)
J9JIE6 and related entries (UniProt Q9UM00),0.875 ± 0.074,0.913 ± 0.043
I3L3K5 and related entries (UniProt O95476),1.02 ± 0.13,1.02 ± 0.015
J3KP92 and related entries (UniProt Q86Z02),1.08 ± 0.11,0.987 ± 0.027
H0YJI2 and related entries (UniProt Q15643),0.978 ± 0.033,0.986 ± 0.034
J3KPP0 and related entries (UniProt Q9Y6G3),0.955 ± 0.12,0.997 ± 0.19
H7C5D9 and related entries (UniProt O75427),0.937 ± 0.032,1.03 ± 0.073
UniProt H7C1Q1,0.947 ± 0.033,1.07 ± 0.083
K7EQ55 and related entries (UniProt Q96EP5),0.995 ± 0.028,1.01 ± 0.029
G5E9P3 and related entries (UniProt Q9NYS0),1.32 ± 0.33,1.05 ± 0.096
H7C5A7 and related entries (UniProt O14734),1.02 ± 0.039,0.997 ± 0.017
H7BXF4 and related entries (UniProt Q9NXE4),1.04 ± 0.14,1.04 ± 0.1
H9KV84 and related entries (UniProt Q6ZTU2),0.968 ± 0.13,0.836 ± 0.2
H0Y360 and related entries (UniProt Q01433),1.02 ± 0.05,0.993 ± 0.029
H0YKC9 and related entries (UniProt Q9HA82),1.01 ± 0.029,1.07 ± 0.038
J3KR97 and related entries (UniProt Q9BTW9),1.02 ± 0.079,0.988 ± 0.022
J3KNZ9 (UniProt Q9HAH7),1.05 ± 0.08,1.09 ± 0.22
H7C3T2 and related entries (UniProt Q2TAZ0),0.9966 ± 0.0055,0.946 ± 0.019
H7BYJ1 and related entries (UniProt Q969K3),0.969 ± 0.04,0.931 ± 0.016
K7EJB5 and related entries (UniProt P62316),0.961 ± 0.088,1.03 ± 0.13
H0Y9I3 and related entries (UniProt Q9HAV4),1.02 ± 0.055,0.998 ± 0.029
K7EKE6 and related entries (UniProt P36776),1.06 ± 0.043,1.04 ± 0.035
H0YJF3 and related entries (UniProt Q13686),0.996 ± 0.051,0.881 ± 0.12
K7EQJ5 and related entries (UniProt P62841),0.928 ± 0.15,0.903 ± 0.12
K7ERT1 and related entries (UniProt O00273),1.01 ± 0.041,0.994 ± 0.035

Target,NP40-soluble protein abundance (concentration: 0.1mM),NP40-soluble protein abundance (concentration: 0.5mM)
K7EP59 and related entries (UniProt Q15831),0.969 ± 0.12,1.01 ± 0.084
H0UI80 and related entries (UniProt X6RLT1+Q8IXH7+H0UI80),0.965 ± 0.033,0.96 ± 0.085
H0YIS7 and related entries (UniProt Q8IXM2+H0YIS7),0.883 ± 0.2,0.868 ± 0.23
J3KNF4 and related entries (UniProt O14618),1.01 ± 0.057,0.974 ± 0.044
G5EA36 and related entries (UniProt P30260),0.997 ± 0.048,1 ± 0.076
H9KVB4 and related entries (UniProt O15417),1.07 ± 0.11,1.05 ± 0.036
H3BPU4 and related entries (UniProt Q9UGJ1),1.03 ± 0.011,1.13 ± 0.14
I3L0K9 and related entries (UniProt Q15027),1.03 ± 0.06,1.03 ± 0.032
H3BPE7 and related entries (UniProt P35637),0.951 ± 0.043,0.97 ± 0.0019
K7EMX1 and related entries (UniProt Q8NBT2),0.94 ± 0.099,0.935 ± 0.079
H7BYF2 and related entries (UniProt Q9BVL2),0.927 ± 0.072,0.882 ± 0.025
G5EA30 and related entries (UniProt Q92879),0.9868 ± 0.0031,0.998 ± 0.057
J3KN10 and related entries (UniProt P42356),1.04 ± 0.074,1.04 ± 0.056
H3BM14 and related entries (UniProt Q9Y5A7),1 ± 0.06,0.996 ± 0.053
H7C1U8 and related entries (UniProt Q9BUR5),0.968 ± 0.027,0.909 ± 0.068
I3L2J0 (UniProt Q96RK0),0.949 ± 0.037,0.996 ± 0.05
H0Y997 and related entries (UniProt Q96J42),0.915 ± 0.03,0.849 ± 0.15
H0Y8C3 and related entries (UniProt Q9NZJ7),1.01 ± 0.1,0.908 ± 0.12
H7C285 and related entries (UniProt O95858),1.07 ± 0.12,1.05 ± 0.12
H0YAH3 and related entries (UniProt Q86SF2),1.06 ± 0.039,1.06 ± 0.063
H0YCE2 and related entries (UniProt Q9BTT0),0.853 ± 0.081,0.853 ± 0.1
J3QT87 and related entries (UniProt Q96SW2),0.954 ± 0.092,0.92 ± 0.074
K7ERW4 and related entries (UniProt Q6AI12),0.986 ± 0.24,0.986 ± 0.23
J3KMZ7 and related entries (UniProt Q9H0H0),1.01 ± 0.1,1.07 ± 0.13

# A different layout for part of the listing above:
Target	NP40-soluble protein abundance (concentration: 0.1mM)	NP40-soluble protein abundance (concentration: 0.5mM)
H0UI80 and related entries (UniProt X6RLT1+Q8IXH7+H0UI80)	0.965 ± 0.033	0.96 ± 0.085
H0YIS7 and related entries (UniProt Q8IXM2+H0YIS7)	0.883 ± 0.2	0.868 ± 0.23
J3KNF4 and related entries (UniProt O14618)	1.01 ± 0.057	0.974 ± 0.044
G5EA36 and related entries (UniProt P30260)	0.997 ± 0.048	1 ± 0.076
H9KVB4 and related entries (UniProt O15417)	1.07 ± 0.11	1.05 ± 0.036
H3BPU4 and related entries (UniProt Q9UGJ1)	1.03 ± 0.011	1.13 ± 0.14
I3L0K9 and related entries (UniProt Q15027)	1.03 ± 0.06	1.03 ± 0.032

# Further records follow.

Target,NP40-soluble protein abundance (concentration: 0.1mM),NP40-soluble protein abundance (concentration: 0.5mM)
M0QWZ7 and related entries (UniProt Q9NP81),1.03 ± 0.084,1.03 ± 0.064
K7ESP4 and related entries (UniProt Q8WVC6),1.167 ± 0.0036,1.26 ± 0.083
H0Y612 and related entries (UniProt Q9UPN9),0.975 ± 0.018,1.01 ± 0.036
K7EPJ5 and related entries (UniProt O60291),0.921 ± 0.044,0.893 ± 0.067
H7C560 and related entries (UniProt P15056),1.06 ± 0.018,1.04 ± 0.046
H0YCP6 and related entries (UniProt Q5T3F8),0.96 ± 0.059,0.888 ± 0.08
J3KQJ1 and related entries (UniProt Q8NBJ7),1.011 ± 0.01,0.989 ± 0.031
H7C2Q8 and related entries (UniProt Q99848),0.968 ± 0.13,1.11 ± 0.14
J3QLS3 and related entries (UniProt Q9Y2R9),0.923 ± 0.098,0.917 ± 0.1
J3QKV7 and related entries (UniProt P55039),1.05 ± 0.078,1.06 ± 0.077
H0YGR4 and related entries (UniProt Q9Y3B8),0.945 ± 0.043,0.946 ± 0.081
H7C561 and related entries (UniProt Q15637),0.975 ± 0.036,0.99 ± 0.019
H0Y679 and related entries (UniProt Q92733),1.01 ± 0.04,0.983 ± 0.032
I3L4I4 and related entries (UniProt O75674),0.873 ± 0.027,0.925 ± 0.025
J3KSW2 and related entries (UniProt Q9UNA4),0.98 ± 0.16,1.07 ± 0.13
J3QTA2 and related entries (UniProt Q99933),1.08 ± 0.074,1.04 ± 0.086
H0Y362 and related entries (UniProt Q8NEW0),1.02 ± 0.018,0.939 ± 0.065
K7EMK7 and related entries (UniProt Q04725),1.04 ± 0.12,0.967 ± 0.076
G8JL98 and related entries (UniProt Q13569),1.01 ± 0.029,1.06 ± 0.058
J3QQ67 and related entries (UniProt Q07020),0.969 ± 0.093,1.04 ± 0.2
L0R819 (UniProt Q9NWL6),0.957 ± 0.15,0.913 ± 0.13
K7EJD2 and related entries (UniProt Q9Y5B0),0.999 ± 0.025,1 ± 0.07
J3KQ32 and related entries (UniProt Q9NTK5),1.03 ± 0.12,1.06 ± 0.077
H3BP20 and related entries (UniProt P06865),0.999 ± 0.061,0.991 ± 0.013

Target,NP40-soluble protein abundance (concentration: 0.1mM),NP40-soluble protein abundance (concentration: 0.5mM)
I3L1P8 and related entries (UniProt Q02978),0.89 ± 0.042,0.893 ± 0.06
H0YAA2 and related entries (UniProt O43660),0.984 ± 0.036,0.982 ± 0.036
H3BSM7 and related entries (UniProt Q96GQ5),1.04 ± 0.061,1.03 ± 0.051
I3L2N2 and related entries (UniProt O14641),0.95 ± 0.013,1 ± 0.053
H0YA52 and related entries (UniProt Q9H0N5),0.968 ± 0.06,0.962 ± 0.12
K7EKM7 (UniProt O75264),0.944 ± 0.053,0.953 ± 0.17
J3QLM1 and related entries (UniProt Q14849),1.06 ± 0.15,1.2 ± 0.31
J3QL56 and related entries (UniProt O75880),0.855 ± 0.07,0.873 ± 0.14
H7BXD5 and related entries (UniProt P28676),0.981 ± 0.029,0.799 ± 0.15
H9KV77 and related entries (UniProt Q9NQ92),1.02 ± 0.1,0.977 ± 0.14
H0YMI4 and related entries (UniProt Q9Y6I4),1 ± 0.053,0.96 ± 0.032
H0Y7L2 and related entries (UniProt Q96N67),1.06 ± 0.048,1.15 ± 0.037
G5E9V6 and related entries (UniProt Q8IUR7),0.944 ± 0.058,0.997 ± 0.075
K7EK00 and related entries (UniProt Q96ND0),0.904 ± 0.038,0.913 ± 0.039
K7EQT1 and related entries (UniProt Q9UM11),0.969 ± 0.092,0.975 ± 0.15
H7BXF5 and related entries (UniProt Q9H0E3),0.995 ± 0.035,1.01 ± 0.042
K7ERF1 and related entries (UniProt Q9UBQ5),0.983 ± 0.013,1 ± 0.018
H0YC40 and related entries (UniProt Q08722),0.907 ± 0.032,0.866 ± 0.086
H0YIE9 and related entries (UniProt O94952),1.03 ± 0.041,1.06 ± 0.098
I3L397 and related entries (UniProt P63241),0.951 ± 0.12,0.968 ± 0.051
H3BUF6 and related entries (UniProt Q8WWM7),0.974 ± 0.03,0.991 ± 0.036
H3BPB8 and related entries (UniProt P34949),1.03 ± 0.011,1.04 ± 0.016
K7ES11 and related entries (UniProt Q9C0C9),0.972 ± 0.018,1 ± 0.031
